Measured values reported in patent US20260265385A1, “CD122 BINDING AGENTS AND METHOD OF USING SAME” (AnaptysBio, Inc., priority 2022, published 2026).
These are yes or no findings as the source states them, for the method shown. Some binding calls cover weakened binding; strength is not graded here.

Protein sequences, listed by entry. Tags and fused reporters are not part of them. Residues count along the entry.
UniProt P14784, residues 27-551: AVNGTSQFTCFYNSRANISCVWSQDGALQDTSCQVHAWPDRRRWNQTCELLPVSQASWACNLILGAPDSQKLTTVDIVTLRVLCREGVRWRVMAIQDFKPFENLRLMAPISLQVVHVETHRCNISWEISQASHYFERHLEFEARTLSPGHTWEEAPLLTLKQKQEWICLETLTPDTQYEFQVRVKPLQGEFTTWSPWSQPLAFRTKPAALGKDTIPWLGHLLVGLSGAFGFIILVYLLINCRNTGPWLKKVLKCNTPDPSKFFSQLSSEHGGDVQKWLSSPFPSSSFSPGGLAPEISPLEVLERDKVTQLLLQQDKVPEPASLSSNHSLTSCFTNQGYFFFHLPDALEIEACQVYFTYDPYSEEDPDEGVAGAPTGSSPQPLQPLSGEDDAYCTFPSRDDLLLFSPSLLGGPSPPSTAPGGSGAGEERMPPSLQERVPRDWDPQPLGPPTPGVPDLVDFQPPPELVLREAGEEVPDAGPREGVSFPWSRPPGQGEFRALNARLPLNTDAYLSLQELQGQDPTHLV

How the values were obtained:
[1] = biological target: human IL-2Rβ (CD122), full-length, on cells (human) (UniProt P14784); assay: cell-based receptor binding assay (flow cytometry)
[2] = biological target: human IL-2Rβ (CD122), full-length, on cells (human) (UniProt P14784); assay: flow cytometry on CHO-K1 cells

binding [1]: binds | binding [2]: binds
B1: APE12383 (antibody, V domains shown)
VH: QVQLQQSGAELMKPGASVKISCKSTGYTFSRYWIEWVKQRPGHGLEWIGEILPGSGSINHNEKFQGKATFTADTSSNTVYMQLSSLTSEDSAVYFCTRHYGSFDYWGQGTTLTVSS
VL: EIVMTQSPKFMSTSVGDRVSVTCKASQNVGTDVAWYQQKPGQSPKALIYSASYRYNGVPDRFTGSGSGTDFTLTISNVQSEDLAEYFCHQYSSYPFTFGSGTKLEIKR
